Measured values published in PubChem BioAssay AID602313 (National Center for Advancing Translational Sciences (NCATS), 2012).
Screen size: about 390,000 compounds; about 760 (0.19%) were called active. The shares of active, inactive and inconclusive entries below differ from those in the screen. Calls follow the shape of the dose curve; as a rule, active = well fitted inhibition curve with a large enough effect; inconclusive = small, poorly fitted or top-dose-only effect; inactive = flat fitted curve, though single readings scatter. Potencies beside an inconclusive call are fits to weak or partial responses and may not hold up.
Potency is read from the fitted curve at half-maximal effect.

Test: qHTS for Inhibitors of Vif-A3F Interactions: qHTS; also: nearly all actives have a fitted effect of over 65% in size; as to activity, negative = active: % of control where 0% means no effect
Details: HeLa A3F-eYFP + Vif (tagged APOBEC3F with the HIV-1 protein that degrades it), YFP fluorescence increase; series mostly up to 46.1 µM; activity, negative = active: at the top concentration
Summary of the method: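 Fluorescence increase (Ex 488/Em 500-530) after overnight compound treatment at 37 deg C flags inhibition of Vif-driven A3F-eYFP loss in stable HeLa A3F-eYFP/Vif cells seeded overnight beforehand.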
In the case of `COc1ccc(C2c3ccc(O)cc3Oc3ncn4nc(-c5ccccn5)nc4c32)cc1OC` (configuration not stated), the “activity, negative = active” value is reported as inactive: -17.4%. With `O=C(C[C@H]1C[C@H](C(=O)N2CCOCC2)[C@@]2(CCC3CCCC3)c3[nH]c4cc(-c5ccco5)ccc4c3CCN2C1=O)NCCc1ccccn1` the Potency was inconclusive: 35.5 µM [inhibitor, single point]. With `Cc1cc2oc3ccc(NCCC4CCCN4C)cc3c(=O)c2cc1C` (configuration not stated) the Potency was inconclusive: 15.8 µM [inhibitor, single point]. In the case of `CCN1CCc2c(sc(NC(=O)Nc3ccc(Cl)c(Cl)c3)c2C(N)=O)C1`, the Potency is reported as inconclusive: 0.562 µM [inhibitor, full curve, poor fit]. For `OCCC1CN(CC#Cc2ccccc2)CCN1Cc1ccccc1F` (configuration not stated), the Potency was inconclusive: 3.16 µM [inhibitor, single point]. For `Oc1ccccc1/C=N/NC(=S)NCCc1ccccc1`, the Potency was inconclusive: 6.31 µM [inhibitor, single point]. In the case of `O=c1oc2ccc3ccccc3c2cc1-c1nc2ccccc2o1`, the Potency is reported as inconclusive: 11.2 µM [inhibitor, partial curve, poor fit]. With `CC1CCN(S(=O)(=O)c2cnc(Cl)c(Br)c2)CC1` the “activity, negative = active” value was inactive: 0.306%. With `COc1ccc(-c2csc(=Nc3ccccc3)n2CCO)cc1` the Potency was inconclusive: 1.78 µM [inhibitor, partial curve, poor fit]. For `CC(C)OCCCn1c(SCC(N)=O)nc2c(sc3ccccc32)c1=O`, the Potency was inconclusive: 14.1 µM [inhibitor, single point]. With `Cc1c(Cl)cccc1NC(=S)NCCc1ccc(Cl)cc1` the “activity, negative = active” value was inactive: 1.49%. In the case of `COc1cc2c3nnc(-c4ccc(F)cc4)c-3cn(Cc3cccc(F)c3)c2cc1OC`, the Potency is reported as active: 6.31 µM. For `O=C(O)/C=C/C(=O)Nc1ccc(Cl)c(C(=O)O)c1`, the “activity, negative = active” value was inactive: -0.376%. With `COc1ccccc1CCNC(=O)C(=O)c1cn(CC(=O)N2CCOCC2)c2ccccc12` the “activity, negative = active” value was inactive: 1.9%. For `COc1ccc([N+](=O)[O-])cc1NC(=O)c1ccc(-n2nc(C)cc2C)cc1`, the Potency was inconclusive: 2.51 µM [inhibitor, partial curve, poor fit]. For `CCCCCCn1c(-c2cccs2)n[nH]c1=S`, the Potency was inconclusive: 3.55 µM [inhibitor, partial curve, poor fit]. In the case of `Cc1ccc2c(c1)C(=O)C(=O)N2CC(=O)Nc1ccc(N2CCOCC2)cc1`, the Potency is reported as inconclusive: 35.5 µM [inhibitor, single point]. For `Cc1cc(C)nc(NC(=S)Nc2cccc(Cl)c2Cl)c1`, the Potency was inconclusive: 2.51 µM [inhibitor, full curve, poor fit]. For `N#C/C(=C\c1ccc(-c2ccc(Cl)c(C(=O)O)c2)o1)c1nc2ccccc2[nH]1`, the Potency was inconclusive: 11.2 µM [inhibitor, partial curve, poor fit]. In the case of `O=C1NC2(CCCC2)Oc2ccccc21`, the Potency is reported as inconclusive: 10 µM [inhibitor, partial curve, poor fit]. In the case of `CCOC(=O)c1c(NC(=S)Nc2ccc(Cl)cc2)sc2c1CCN(C)C2`, the Potency is reported as inconclusive: 35.5 µM [inhibitor, single point]. With `Cc1cc(O)c2c(c1)C(=O)[C@@]13Oc4c5c(c(O)c6c(O)cc(C)cc46)C(=O)C[C@H](O)[C@H]5[C@@H]1[C@@H](O)CC(=O)C3=C2O` the “activity, negative = active” value was inactive: -3.44%. For `O=C1S/C(=C\c2ccc(N3CCOCC3)o2)C(=O)N1Cc1c(F)cccc1Cl`, the Potency was inconclusive: 3.16 µM [inhibitor, partial curve, poor fit]. With `COc1cccc(-n2c(SCC(=O)NCCC3=CCCCC3)nc3n[nH]c(C)c3c2=N)c1` the “activity, negative = active” value was inactive: -10.5%. For `N#C/C(=C/c1ccc(N2CCCCCC2)o1)c1ccc(F)cc1`, the Potency was active: 28.2 µM. In the case of `CCOC(=O)c1cc(OC(=O)c2cccc(F)c2)n(-c2ccccc2)n1`, the “activity, negative = active” value is reported as inactive: 8.75%. In the case of `Cc1sc(-c2c(C#N)c(N)nc3c2CCCCCC3)cc1[N+](=O)[O-]`, the Potency is reported as inconclusive: 14.1 µM [inhibitor, partial curve, poor fit]. For `Cc1ccccc1-c1noc(-c2ccc(N3CCCC3)c([N+](=O)[O-])c2)n1`, the “activity, negative = active” value was inactive: 2.91%. With `COc1ccc(N2CCN(C(CNC(=O)C(=O)NCCc3c[nH]c4ccccc34)c3ccco3)CC2)cc1` (configuration not stated) the Potency was inconclusive: 35.5 µM [inhibitor, single point]. With `CN(C)c1ccc(/C=N/NC(=O)c2cc(-c3ccc4c(c3)OCO4)n[nH]2)cc1` the Potency was inconclusive: 28.2 µM [inhibitor, single point]. With `Cn1nnnc1SCc1nc2scc(-c3ccc(Cl)cc3)c2c(=O)[nH]1` the Potency was active: 22.4 µM. With `COc1ccc(-n2c(SCC(=O)Nc3ccc(Cl)cc3)nc(O)c(Cc3ccccc3)c2=O)cc1` the Potency was inconclusive: 6.31 µM [inhibitor, single point]. For `Cc1nc(NC(=O)c2cccc(-c3cc4ccccc4oc3=O)c2)ccc1Br`, the Potency was inconclusive: 5.62 µM [inhibitor, full curve, poor fit]. In the case of `COc1ccc(C2CC(=O)Nc3sc(=N)c4c(N)c(C#N)c(N)nc4c32)cc1OC` (configuration not stated), the Potency is reported as inconclusive: 6.31 µM [inhibitor, single point]. With `CS(=O)(=O)c1nc(S(=O)(=O)c2ccc(Cl)cc2)c(N2CCC(C(N)=O)CC2)s1` the “activity, negative = active” value was inactive: -7.48%. With `O=C(Nc1nc2ccccc2[nH]1)c1ccccc1F` the “activity, negative = active” value was inactive: -11.1%. With `CC1CC1C(=O)OCC(=O)N(C)c1c(N)n(Cc2ccccc2)c(=O)[nH]c1=O` (configuration not stated) the Potency was inconclusive: 6.31 µM [inhibitor, single point]. In the case of `CCC(/C=C1\Oc2ccc(OC)cc2N1C)=C\c1sc2ccccc2[n+]1CCCS(=O)(=O)[O-]`, the Potency is reported as inconclusive: 11.2 µM [inhibitor, partial curve, poor fit]. In the case of `CCCCN(CC)C(=O)c1ccc(-c2ccccc2)cc1`, the “activity, negative = active” value is reported as inactive: 2.52%. With `CN(C)CCCN(C(=O)c1ccc(Br)s1)c1nc2cc3c(cc2s1)OCCO3` the Potency was inconclusive: 12.6 µM [inhibitor, partial curve, poor fit]. In the case of `C=CCn1c(-c2oc3nc(-c4ccccc4)cc(-c4ccccc4)c3c2N)n[nH]c1=S`, the Potency is reported as inconclusive: 35.5 µM [inhibitor, single point]. With `COc1ccc(CNc2ccc3c(c2)CCC3)cc1Br` the “activity, negative = active” value was inactive: 2.3%.
